Data as given in PubChem BioAssay AID1347423 (Functional Genomics Laboratory (NCATS/FGL), 2020).
Screen size: about 52,000 sequences; about 210 (0.4%) were called active.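 How the source made its calls: active means gene whose silencing raises cell survival under the drug, median off-target-corrected z-score across its silencing RNAs 2 or more; inactive means the rest.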 The list shows a part of the results.

Experiment: Resistance to Poly (ADP-Ribose) Polymerase inhibitor: Gene Identification via Genome-wide siRNA Screen
Settings: mouse BRCA2 R2336H ES cells, olaparib, CellTiter-Glo viability; active compounds read high
In short: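 Genome-wide siRNA screen (3 siRNAs/gene, 20 nM) in mouse ES cells carrying hypomorphic BRCA2 R2336H; olaparib 500 nM added 48 h post-transfection, CellTiter-Glo viability 72 h later. Normalized to plate-median negative control; MAD z-scores, gene median, seed-adjusted.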

Sequence | z-score
GGUUCACUCCUGAUACCACTT against 5330420D20Rik | inactive: 1.33
GGACUUUUGGAUAACUUAGTT against 1200008A14Rik | inactive: -0.788
GGACAAUGGUUCCUUGGAUTT against Cdc25c | inactive: 0.0582
GGCCAUUCACGUUUUACUCTT against MGC58970 | inactive: 0.067
GGUAUCGACCACAGAUCAUTT against Plxnd1 | inactive: 0.52
GGUGCUCAUGGAGAAGUUATT against Mlstd1 | inactive: -0.524
GCGGCAUCUACUUAAUAUGTT against CRG-L1 | inactive: 0.109
GGAUUAUGGAAAGAACUUUTT against Sort1 | inactive: 0.111
GGUACUAAAUAAAAGACCGTT against Dsc2 | inactive: 2.41
GCACGCCUCUUUCAGCUAUTT against Pitx3 | inactive: 0.612
GGAGCCUCAGGUCCAAAUGTT against 4931417G12Rik | inactive: -1.39
CCCACUUUGAAAAAGACUCTT against 4930486G11Rik | inactive: 0.508
CGAUUUAAUGUCAACAUUGTT against Arhgap5 | inactive: -0.531
GUGGGAUUCCUGUACAAAUTT against Olfr1118 | inactive: 0.247
CGCUCUGUUAAUGCAGGAUTT against Papss1 | inactive: -0.134
CCCACUGAUGCUAUUUCUATT against Rad1 | inactive: -2.33
GGCAUUCCAGAGAAAGCGUTT against F3 | inactive: 0.611
GCAGCUAGAUAAUUAACUATT against 9030605H24Rik | inactive: 0.0531
GGCCUGUAUCACUUUUAUCTT against Pcsk2 | inactive: 0.392
GCACAAGACCUGCAUACUATT against Ttc5 | inactive: 0.16
CCACUCCGAAACCAUCAGCTT against Accn1 | inactive: 0.749
GGACAAGCUGCAUCUGUUUTT against Rgma | inactive: -1.2
GCACCCAUAUCAACGAGGUTT against Olfr924 | inactive: 1.41
GGUACAACAAAUCUUAUCATT against Abca6 | inactive: 0.299
GGUGGAAUUCAUUUUGACATT against Dnajb6 | inactive: 0.397
GGACUAUGCCAGGAAACUGTT against Pgls | inactive: -0.24
GGCAUAAACCUUCUUGCUCTT against Ccl22 | inactive: 0.282

Reformatted: entries from further up
Sequence	z-score
GGUGGAAUUCAUUUUGACATT against Dnajb6	inactive: 0.397
GGACUAUGCCAGGAAACUGTT against Pgls	inactive: -0.24

Additional entries:

Sequence | z-score
CCUCUCCCUAAUUAUCUUUTT against Dscr6 | inactive: 1.37
GCCACUGAGAUGUGACGAATT against Pbp2 | inactive: 0.0135
GAAUCGGAGGACAAAAUACTT against Emx1 | inactive: -0.0963
CCCAGAACGGGAUGAUUCUTT against Trex2 | inactive: -0.513
GGGAUCGUCCAGAUCUAAUTT against Apobec3 | inactive: 0.404
GGAACUGGGUCCUCAUUCCTT against Capn1 | inactive: -0.0333
GGAGAUACCCUCGAGUAUATT against Lrrtm3 | inactive: -0.474
CCGACCAGAAGCUUUAAAGTT against Sepx1 | inactive: -0.448
CGGAUGCGACAAAAAUCACTT against Il4 | inactive: 1.18
GGUAAAGACUGGAUGGCUATT against Art5 | inactive: 1.41
GGAGCAACAACUUAAAUGUTT against Slc16a4 | inactive: 0.605
CCCAUACUGUCACUUUAAGTT against Hist1h2bg | inactive: -1.44
GGAGAAAGACCAUUACUGUTT against Ly6e | inactive: -0.824
GGGAUUUUAAGAGUUGACUTT against Cyp3a41 | inactive: 0.409
CCAUUCGGGUGAAGUUCCATT against Lsm7 | inactive: -0.786
GCCCGACCUGUUGAGAAGATT against Trip3 | inactive: 0.734
GCGGCGAUACUUCUACUUGTT against Adrbk1 | inactive: 0.195
GCUACCAAUAGGAAUAAAATT against V1re2 | inactive: 0.624
GGAAGUGUUCACCCGAUUCTT against Ckb | inactive: -0.677
GGGAGUUUGACAUCUUCUATT against Lrrk1 | inactive: -0.977
GGAGCUGGACCUGCUGUUATT against 0610006O14Rik | inactive: 1.74
GUUUCUAGCUACCUUCCAGTT against Aqp11 | inactive: -0.853
CCAUGCAGUACUUCAUCUUTT against Olfr1440 | inactive: 0.284
UGAAAAGAGCAAUGAAGAATT against Olfr177 | inactive: -0.165
GGCUGUGGUGAAGACUUUCTT against Cd81 | inactive: -0.38
GGCAGUGAAAGAACUGGACTT against Serpina1b | inactive: 0.306
GCCUAUUCACCAAAUCACATT against Sdfr2 | inactive: 0.192

Sequence | z-score
GGUUUUACGAAGCUUACAATT against Myo7a | inactive: -0.413
GGCACCUCCUGUUACAUACTT against LOC73072 | inactive: -0.998
GGACAAGGUCAGCAGUAUGTT against Ss18l1 | inactive: 1.21
GCUUCAGAUUGGUGUGAUATT against Rec8L1 | inactive: 0.478
GGAGGAAUUACAAUAGCCATT against Odz1 | inactive: 0.168
GGCACUCCUCUUUGUUUUCTT against Olfr414 | inactive: 0.292
GGAGAAGGCAACUUCUGUUTT against 9930016F01Rik | inactive: -0.578
GGUGAUUAAAUACUGCUCATT against V1rc12 | inactive: -1
GGAAGGUGUCAAUAAAGAUTT against 2310061G07Rik | inactive: 0.831
CCAAAAGCAGCACAUUUCATT against 5730590G19Rik | inactive: -0.203
CGAUUAACCCACUCUUGUCTT against Mapkapk2 | inactive: -0.748
GAGACUAGACUAACCCUGUTT against Galr3 | inactive: 0.753
CCAAAAGGACCAAUCAGUUTT against Slc1a2 | inactive: -1.16
GGUUCUAGAAAACAUGAACTT against Tdrd1 | inactive: -0.0126
GUUCCACUACUUCUGCUCCTT against Olfr583 | inactive: 1.05
GCCAGUCGUAACAUAUUCUTT against Pip5k3 | inactive: 0.78
GCCUCUGCAUAUGAUUACGTT against Myom1 | inactive: -0.0769
CCAUAUACCCUCGAUGCCATT against 1700095H12 | inactive: 0.0373
CCAACUGUGAUCAGUGAGCTT against Shank3 | inactive: -0.254
GGACAAGACCAUCUUCGAUTT against BC010462 | inactive: 0.489
GGAGCAUUAACUGUCUUGATT against Olfr356 | inactive: -1.71
GGAUCCACUAAUGUGAAAATT against Trim39 | inactive: -0.834
GAAGAGCAAGCCAUUUGAUTT against D930038D03Rik | inactive: -0.399
CCUGGGCCUUAACAAGAAGTT against Rent1 | inactive: -0.395
CCAUACCCACUUACUGAAGTT against A830023L05 | inactive: 0.28
GGAACUUGAACUAAAAAUGTT against Eaf1 | inactive: -0.554
GCAGGAAAUCUAAUGCACUTT against Gsdm3 | inactive: -0.0448

Sequence | z-score
GCUCUGAGUAUUGAUGGCCTT against Hcfc1r1 | inactive: 1.09
GCUAAGAGUCUUUGGAACGTT against Maff | inactive: -0.43
GGAAGAUGCCAUCUUACACTT against 2010012O05Rik | inactive: -0.527
GCAUCUCACUUUUGACCUATT against BC038286 | inactive: 0.862
CCUGGACAAGCUAUACCUUTT against Cdc45l | inactive: 2.5
UAUUAAGUGAGGGUAGUAGTT against Olfr1168 | inactive: -0.121
GGAACGAGAACGAGUCCUUTT against Psd2 | inactive: -1.46
CGGUUUUGUCAAAGCCCUGTT against Junb | inactive: 1.73
GGACAAUGUCCUCUCGCUATT against Tgm2 | inactive: 1.98
GGGAAGAGAGGAGAAUAUUTT against Stat4 | inactive: 1.15
GUAUUCGGUAAUUUGACUUTT against Olfr921 | inactive: -0.192
CCUCAGAUCUUGACCCUGGTT against 1110067I12Rik | inactive: -0.524
GGACUUGGACAAACAUCAATT against Cox7a1 | inactive: 0.317
GGACUUUUAUUUUGUUAGCTT against Pacsin2 | active: 3.01
GGUUUGAGAAUGUUUUAGGTT against Avpr1a | inactive: -0.319
GGCCAUUACGAUGAAGAUUTT against 9430016A21Rik | inactive: -1.92
GGCCCUAGAAAUAAUCUGCTT against Harp | inactive: -0.212
GCCAGGUAUUGGAUGCCAUTT against Gm711 | inactive: 0.413
GCAUGCAGCGGUCCAUAUUTT against Cacna2d1 | inactive: 0.316
CGCCUUUUGCAUAUCAGAGTT against Defb39 | inactive: -0.445
GGACUACCUCACACUCUUCTT against Oprs1 | inactive: -0.235
GGAAAGUGUUGUCAAAAGATT against Olfr125 | inactive: 0.408
GGUAAUGAGGACAUGGAUCTT against BC034664 | inactive: 0.82
GAGAGUGAUCACUUAGGCATT against LOC381806 | inactive: -1.06

A different layout for part of the listing above:
Sequence,z-score
GGGAAGAGAGGAGAAUAUUTT against Stat4,inactive: 1.15
GUAUUCGGUAAUUUGACUUTT against Olfr921,inactive: -0.192
CCUCAGAUCUUGACCCUGGTT against 1110067I12Rik,inactive: -0.524
GGACUUGGACAAACAUCAATT against Cox7a1,inactive: 0.317
